Measured values reported in US12622885B2, “Short chain fatty acid compounds and uses thereof” (Temple University-Of The Commonwealth System of Higher …, priority 2023, dated 2026).
For at least one compound, name, drawing or mass did not settle the structure.

Legend:
K16 = test: Anti-K16 immunostaining of InflammaSkin models; format: cell-based, human; conditions: Day 7; SCFAs systemic, 0.05% Betamethasone topical, Day 1 to Day 6
InflammaSkin® models = test: H&E staining of InflammaSkin ex vivo human skin psoriasis model; format: cell-based; conditions: Day 7, 0.05% Betamethasone topical Day 1 to Day 6

C[C@H]1C[C@H]2[C@@H]3CCC4=CC(=O)C=C[C@]4(C)[C@@]3(F)[C@@H](O)C[C@]2(C)[C@@]1(O)C(=O)CO [Betamethasone]
expression of K16 in the epidermis (K16): decrease the expression of K16 | incidence of vacuolization and epidermal/dermal separation (H&E) (InflammaSkin® models): reduce the incidence of vacuolization and epidermal/dermal separation | pyknosis (H&E) (InflammaSkin® models; upper layers of the epidermis): large amount of pyknosis
